{"source": "patent US20060257938A1", "about": "“Method of screening for drugs that block ligand binding to a lipid binding protein” (priority 2005, published 2006)", "data": [{"experiment": "Baseline fluorescence ratio Ro of probe in absence of analyte", "conditions": "Table 4; baseline ratio, no analyte", "values": [{"molecule": "L1P17A8: FABP probe, substitutions L38M L72G Y117F vs SEQ ID NO: 2 (protein, listed as Rattus norvegicus, PEPTIDE (1)...(131) wild-type rat intestinal fatty acid binding protein) AFDGTWKVDRNENYEKFMEKMGINVVKRKLGAHDNLKMTITQEGNKFTVKESSNFRNIDVVFELGVDFAYSGADGTELTGTWTMEGNKLVGKFKRVDNGKELIAVREISGNELIQTFTYEGVEAKRIFKKE", "Ro": 0.24}, {"molecule": "L1P8H2: FABP probe, substitutions Y14M L38M L72W vs SEQ ID NO: 2 (protein, listed as Rattus norvegicus, PEPTIDE (1)...(131) wild-type rat intestinal fatty acid binding protein) AFDGTWKVDRNENMEKFMEKMGINVVKRKLGAHDNLKMTITQEGNKFTVKESSNFRNIDVVFELGVDFAYSWADGTELTGTWTMEGNKLVGKFKRVDNGKELIAVREISGNELIQTYTYEGVEAKRIFKKE", "Ro": 0.69}, {"molecule": "L1P16G10: FABP probe, substitutions Y14W L72M Y117A vs SEQ ID NO: 2 (protein, listed as Rattus norvegicus, PEPTIDE (1)...(131) wild-type rat intestinal fatty acid binding protein) AFDGTWKVDRNENWEKFMEKMGINVVKRKLGAHDNLKLTITQEGNKFTVKESSNFRNIDVVFELGVDFAYSMADGTELTGTWTMEGNKLVGKFKRVDNGKELIAVREISGNELIQTATYEGVEAKRIFKKE", "Ro": 0.34}, {"molecule": "L1P9G10: FABP probe, substitutions L38I L72G vs SEQ ID NO: 2 (protein, listed as Rattus norvegicus, PEPTIDE (1)...(131) wild-type rat intestinal fatty acid binding protein) AFDGTWKVDRNENYEKFMEKMGINVVKRKLGAHDNLKITITQEGNKFTVKESSNFRNIDVVFELGVDFAYSGADGTELTGTWTMEGNKLVGKFKRVDNGKELIAVREISGNELIQTYTYEGVEAKRIFKKE", "Ro": 0.29}, {"molecule": "L1P7H4: FABP probe, substitutions Y14I L38M L72W vs SEQ ID NO: 2 (protein, listed as Rattus norvegicus, PEPTIDE (1)...(131) wild-type rat intestinal fatty acid binding protein) AFDGTWKVDRNENIEKFMEKMGINVVKRKLGAHDNLKMTITQEGNKFTVKESSNFRNIDVVFELGVDFAYSWADGTELTGTWTMEGNKLVGKFKRVDNGKELIAVREISGNELIQTYTYEGVEAKRIFKKE", "Ro": 0.62}, {"molecule": "L1P1C3: FABP probe, substitutions Y14M L72W vs SEQ ID NO: 2 (protein, listed as Rattus norvegicus, PEPTIDE (1)...(131) wild-type rat intestinal fatty acid binding protein) AFDGTWKVDRNENMEKFMEKMGINVVKRKLGAHDNLKLTITQEGNKFTVKESSNFRNIDVVFELGVDFAYSWADGTELTGTWTMEGNKLVGKFKRVDNGKELIAVREISGNELIQTYTYEGVEAKRIFKKE", "Ro": 0.60}, {"molecule": "L1P5A10: FABP probe, substitution Y117A vs SEQ ID NO: 2 (protein, listed as Rattus norvegicus, PEPTIDE (1)...(131) wild-type rat intestinal fatty acid binding protein) AFDGTWKVDRNENYEKFMEKMGINVVKRKLGAHDNLKLTITQEGNKFTVKESSNFRNIDVVFELGVDFAYSLADGTELTGTWTMEGNKLVGKFKRVDNGKELIAVREISGNELIQTATYEGVEAKRIFKKE", "Ro": 0.28}, {"molecule": "L1P17A1: FABP probe, substitutions Y14I L72W vs SEQ ID NO: 2 (protein, listed as Rattus norvegicus, PEPTIDE (1)...(131) wild-type rat intestinal fatty acid binding protein) AFDGTWKVDRNENIEKFMEKMGINVVKRKLGAHDNLKLTITQEGNKFTVKESSNFRNIDVVFELGVDFAYSWADGTELTGTWTMEGNKLVGKFKRVDNGKELIAVREISGNELIQTYTYEGVEAKRIFKKE", "Ro": 0.56}, {"molecule": "L1P8D4: FABP probe, substitutions Y14M L72M Y117A vs SEQ ID NO: 2 (protein, listed as Rattus norvegicus, PEPTIDE (1)...(131) wild-type rat intestinal fatty acid binding protein) AFDGTWKVDRNENMEKFMEKMGINVVKRKLGAHDNLKLTITQEGNKFTVKESSNFRNIDVVFELGVDFAYSMADGTELTGTWTMEGNKLVGKFKRVDNGKELIAVREISGNELIQTATYEGVEAKRIFKKE", "Ro": 0.31}]}, {"experiment": "Baseline fluorescence ratio Ro of probe in absence of analyte", "conditions": "Table 5; baseline ratio, no analyte", "values": [{"molecule": "L2P9E12: FABP probe, substitutions M18L F55L A73I vs SEQ ID NO: 2 (protein, listed as Rattus norvegicus, PEPTIDE (1)...(131) wild-type rat intestinal fatty acid binding protein) AFDGTWKVDRNENYEKFLEKMGINVVKRKLGAHDNLKLTITQEGNKFTVKESSNLRNIDVVFELGVDFAYSLIDGTELTGTWTMEGNKLVGKFKRVDNGKELIAVREISGNELIQTYTYEGVEAKRIFKKE", "Ro": 0.38}, {"molecule": "L2P8F11: FABP probe, substitution A73I vs SEQ ID NO: 2 (protein, listed as Rattus norvegicus, PEPTIDE (1)...(131) wild-type rat intestinal fatty acid binding protein) AFDGTWKVDRNENYEKFMEKMGINVVKRKLGAHDNLKLTITQEGNKFTVKESSNFRNIDVVFELGVDFAYSLIDGTELTGTWTMEGNKLVGKFKRVDNGKELIAVREISGNELIQTYTYEGVEAKRIFKKE", "Ro": 0.28}, {"molecule": "L2P4C5: FABP probe, substitutions M18I G31Y vs SEQ ID NO: 2 (protein, listed as Rattus norvegicus, PEPTIDE (1)...(131) wild-type rat intestinal fatty acid binding protein) AFDGTWKVDRNENYEKFIEKMGINVVKRKLYAHDNLKLTITQEGNKFTVKESSNFRNIDVVFELGVDFAYSLADGTELTGTWTMEGNKLVGKFKRVDNGKELIAVREISGNELIQTYTYEGVEAKRIFKKE", "Ro": 0.35}, {"molecule": "L2P12G9: FABP probe, substitutions M18L A73V vs SEQ ID NO: 2 (protein, listed as Rattus norvegicus, PEPTIDE (1)...(131) wild-type rat intestinal fatty acid binding protein) AFDGTWKVDRNENYEKFLEKMGINVVKRKLGAHDNLKLTITQEGNKFTVKESSNFRNIDVVFELGVDFAYSLVDGTELTGTWTMEGNKLVGKFKRVDNGKELIAVREISGNELIQTYTYEGVEAKRIFKKE", "Ro": 0.46}, {"molecule": "L2P1E6: FABP probe, substitutions M18L A73L vs SEQ ID NO: 2 (protein, listed as Rattus norvegicus, PEPTIDE (1)...(131) wild-type rat intestinal fatty acid binding protein) AFDGTWKVDRNENYEKFLEKMGINVVKRKLGAHDNLKLTITQEGNKFTVKESSNFRNIDVVFELGVDFAYSLLDGTELTGTWTMEGNKLVGKFKRVDNGKELIAVREISGNELIQTYTYEGVEAKRIFKKE", "Ro": 0.34}]}]}
